Results are given in words; binding and its absence hold for the method and conditions named. In cells and extracts the contact can be indirect. Here binding means that the protein was enriched with, or labelled near, the bait; the list need not be complete. For some assays here: Sequences can lack the tags named with a protein. Values belong to the binder of their own block, whether it stands above or below them.
Legend:
[1] = target: GFP-ZC3H11A(wt) (human) (UniProt O75152); experiment: affinity purification with mass spectrometry; GFP, GFP-ZC3H11A(wt) or GFP-ZC3H11A(dZF) as baits in transfected HeLa cells; lysate with benzonase; GFP-Trap magnetic beads, 1 h at 4 °C; LC-MS/MS
[2] = target: ZC3H11A, endogenous, human HeLa cells (human (endogenous in HeLa)) (UniProt O75152); experiment: affinity purification with mass spectrometry; anti-ZC3H11A (heavy) against anti-IgG (light) immunoprecipitation from SILAC-labelled HeLa lysates treated with nuclease; Dynabeads Protein G; LC-MS/MS
[3] = target: T1, GFP-ZC3H11A(dZF) (human) (UniProt O75152); experiment: affinity purification with mass spectrometry; GFP, GFP-ZC3H11A(wt) or GFP-ZC3H11A(dZF) as baits in transfected HeLa cells; lysate with benzonase; GFP-Trap magnetic beads, 1 h at 4 °C; LC-MS/MS
T1 sequence: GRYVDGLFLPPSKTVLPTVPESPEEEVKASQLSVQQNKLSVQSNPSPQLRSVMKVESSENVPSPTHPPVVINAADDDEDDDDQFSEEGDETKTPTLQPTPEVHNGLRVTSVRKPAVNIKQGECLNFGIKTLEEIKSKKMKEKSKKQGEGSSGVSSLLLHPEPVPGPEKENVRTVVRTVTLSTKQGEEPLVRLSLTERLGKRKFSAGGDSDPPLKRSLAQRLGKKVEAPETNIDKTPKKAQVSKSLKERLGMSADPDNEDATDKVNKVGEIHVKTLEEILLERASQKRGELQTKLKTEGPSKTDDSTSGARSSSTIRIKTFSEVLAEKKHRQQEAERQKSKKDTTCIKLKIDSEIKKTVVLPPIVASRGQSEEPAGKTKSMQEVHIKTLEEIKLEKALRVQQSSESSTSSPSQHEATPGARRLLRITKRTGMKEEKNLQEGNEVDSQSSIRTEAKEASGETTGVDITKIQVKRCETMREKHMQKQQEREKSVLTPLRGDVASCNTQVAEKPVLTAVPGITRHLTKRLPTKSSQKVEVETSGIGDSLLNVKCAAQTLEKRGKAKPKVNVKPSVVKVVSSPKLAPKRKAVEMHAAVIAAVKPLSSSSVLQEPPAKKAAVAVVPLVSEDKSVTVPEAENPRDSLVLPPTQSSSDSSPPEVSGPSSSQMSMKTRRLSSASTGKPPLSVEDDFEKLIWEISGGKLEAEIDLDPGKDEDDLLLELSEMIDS

Chains of the proteins cited; added tags and fusions are not shown.
UniProt Q6NZF1: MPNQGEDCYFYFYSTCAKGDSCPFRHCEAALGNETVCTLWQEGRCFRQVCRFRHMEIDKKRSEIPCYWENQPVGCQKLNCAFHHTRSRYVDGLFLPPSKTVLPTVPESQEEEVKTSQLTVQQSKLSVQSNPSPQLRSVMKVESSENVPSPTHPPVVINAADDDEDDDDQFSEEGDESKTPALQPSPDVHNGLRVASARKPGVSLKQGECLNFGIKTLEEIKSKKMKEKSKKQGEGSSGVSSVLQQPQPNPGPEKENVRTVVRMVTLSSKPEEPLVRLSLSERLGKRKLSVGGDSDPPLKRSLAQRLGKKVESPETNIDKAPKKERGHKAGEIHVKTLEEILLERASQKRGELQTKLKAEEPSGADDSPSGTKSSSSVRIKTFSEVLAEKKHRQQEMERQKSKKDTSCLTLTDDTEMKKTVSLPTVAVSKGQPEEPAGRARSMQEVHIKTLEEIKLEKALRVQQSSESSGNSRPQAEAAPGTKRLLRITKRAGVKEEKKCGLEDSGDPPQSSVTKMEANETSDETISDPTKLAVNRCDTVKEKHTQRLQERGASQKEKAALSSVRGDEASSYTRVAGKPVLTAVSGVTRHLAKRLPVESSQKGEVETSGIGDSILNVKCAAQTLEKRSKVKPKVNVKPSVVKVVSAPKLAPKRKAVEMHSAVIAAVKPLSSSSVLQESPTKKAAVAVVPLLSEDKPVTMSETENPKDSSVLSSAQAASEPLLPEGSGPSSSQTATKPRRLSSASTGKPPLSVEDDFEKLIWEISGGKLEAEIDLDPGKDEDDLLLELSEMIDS

[4] = target: ZC3H11A(wt)-Flag (human) (UniProt O75152); experiment: affinity purification with mass spectrometry
[5] = target: ZC3H11A, endogenous, mouse embryonic stem cells (mouse (endogenous in mESCs)) (UniProt Q6NZF1); experiment: affinity purification with mass spectrometry; anti-ZC3H11A and anti-IgG immunoprecipitation from mouse embryonic stem cell lysates treated with benzonase; mass spectrometry

binding [1]: binds
B1: THOC6, endogenous, HeLa cells (protein, UniProt Q86W42 1-341)
chain: MERAVPLAVPLGQTEVFQALQRLHMTIFSQSVSPCGKFLAAGNNYGQIAIFSLSSALSSEAKEESKKPVVTFQAHDGPVYSMVSTDRHLLSAGDGEVKAWLWAEMLKKGCKELWRRQPPYRTSLEVPEINALLLVPKENSLILAGGDCQLHTMDLETGTFTRVLRGHTDYIHCLALRERSPEVLSGGEDGAVRLWDLRTAKEVQTIEVYKHEECSRPHNGRWIGCLATDSDWMVCGGGPALTLWHLRSSTPTTIFPIRAPQKHVTFYQDLILSAGQGRCVNQWQLSGELKAQVPGSSPGLLSLSLNQQPAAPECKVLTAAGNSCRVDVFTNLGYRAFSLSF

binding [2]: binds
binding [3]: binds
binding [1]: binds
B2: POLDIP3, endogenous, HeLa cells (protein, UniProt Q9BY77 1-421)
chain: MADISLDELIRKRGAAAKGRLNARPGVGGVRSRVGIQQGLLSQSTRTATFQQRFDARQKIGLSDARLKLGVKDAREKLLQKDARFRIKGKVQDAREMLNSRKQQTTVPQKPRQVADAREKISLKRSSPAAFINPPIGTVTPALKLTKTIQVPQQKAMAPLHPHPAGMRINVVNNHQAKQNLYDLDEDDDGIASVPTKQMKFAASGGFLHHMAGLSSSKLSMSKALPLTKVVQNDAYTAPALPSSIRTKALTNMSRTLVNKEEPPKELPAAEPVLSPLEGTKMTVNNLHPRVTEEDIVELFCVCGALKRARLVHPGVAEVVFVKKDDAITAYKKYNNRCLDGQPMKCNLHMNGNVITSDQPILLRLSDSPSMKKESELPRRVNSASSSNPPAEVDPDTILKALFKSSGASVTTQPTEFKIKL

binding [4]: binds
binding [2]: binds
binding [1]: binds
B3: PABPN1, endogenous, HeLa cells (protein, UniProt Q86U42 1-306)
chain: MAAAAAAAAAAGAAGGRGSGPGRRRHLVPGAGGEAGEGAPGGAGDYGNGLESEELEPEELLLEPEPEPEPEEEPPRPRAPPGAPGPGPGSGAPGSQEEEEEPGLVEGDPGDGAIEDPELEAIKARVREMEEEAEKLKELQNEVEKQMNMSPPPGNAGPVIMSIEEKMEADARSIYVGNVDYGATAEELEAHFHGCGSVNRVTILCDKFSGHPKGFAYIEFSDKESVRTSLALDESLFRGRQIKVIPKRTNRPGISTTDRGFPRARYRARTTNYNSSRSRFYSGFNSRPRGRVYRGRARATSWYSPY

binding [1]: binds
B4: THOC1, endogenous, HeLa cells (protein, UniProt Q96FV9 1-657)
chain: MSPTPPLFSLPEARTRFTKSTREALNNKNIKPLLSTFSQVPGSENEKKCTLDQAFRGILEEEIINHSSCENVLAIISLAIGGVTEGICTASTPFVLLGDVLDCLPLDQCDTIFTFVEKNVATWKSNTFYSAGKNYLLRMCNDLLRRLSKSQNTVFCGRIQLFLARLFPLSEKSGLNLQSQFNLENVTVFNTNEQESTLGQKHTEDREEGMDVEEGEMGDEEAPTTCSIPIDYNLYRKFWSLQDYFRNPVQCYEKISWKTFLKYSEEVLAVFKSYKLDDTQASRKKMEELKTGGEHVYFAKFLTSEKLMDLQLSDSNFRRHILLQYLILFQYLKGQVKFKSSNYVLTDEQSLWIEDTTKSVYQLLSENPPDGERFSKMVEHILNTEENWNSWKNEGCPSFVKERTSDTKPTRIIRKRTAPEDFLGKGPTKKILMGNEELTRLWNLCPDNMEACKSETREHMPTLEEFFEEAIEQADPENMVENEYKAVNNSNYGWRALRLLARRSPHFFQPTNQQFKSLPEYLENMVIKLAKELPPPSEEIKTGEDEDEEDNDALLKENESPDVRRDKPVTGEQIEVFANKLGEQWKILAPYLEMKDSEIRQIECDSEDMKMRAKQLLVAWQDQEGVHATPENLINALNKSGLSDLAESLTNDNETNS

binding [5]: binds
B5: CHTOP, endogenous, mouse embryonic stem cells (protein, UniProt Q9CY57 1-249)
chain: MAAQSAPKVVLKSTTKMSLNERFTNMLKNKQPMPVNIRASMQQQQQLASARNRRLAQQMENRPSVQAALKLKQKSLKQRLGKSNIQARLGRPIGALARGAIGGRGLPIIQRGLPRGGLRGGRATRTLLRGGMSLRGQNLLRGGRAVAPRMGLRRGGVRGRGGPGRGGLGRGAMGRGGIGGRGRGMIGRGRGGFGGRGRGRGRGRGALTRPVLTKEQLDNQLDAYMSKTKGHLDAELDAYMAQTDPETND

binding [5]: binds
B6: POLDIP3, endogenous, mouse embryonic stem cells (protein, UniProt Q8BG81 1-420)
chain: MADLSLDELIRKRGTAAKGRLSVRPGIGGVRSRVGIQHSLVNQPARTATFQQRFDARQKIGLSDARLKLGVKDAREKLLQKDARFRIKGKVQDAREMLNSRKQQGTVPQKPRQVADAREKISLKRRSPAAFTSPPIGTVTPALKLTKTIQVPQQKAMVPLHAHPAGMRINVVNNHQAKQNLYDLDEDDDIVVPVPPKQMKFAATGSLVHHMTGLSSSKLSMSKALPLTKVVQNDAYTAPVLPSSVRTKALTSMSRTLVNKEEPPKELPPAEPVLSPLEGTKMTVNNLHPRVTEEDIVELFCVCGALKRARLVHPGVAEVVFVKKDDAITAYKKYNNRCLDGQPMKCNLHMNGNVITSDQPILLRLSDSPSVKKESELPRRGNPASSNPPAEVDPDTVLRALFKSSGASVTTQPTEFKIKL

binding [5]: binds
B7: PABPN1, endogenous, mouse embryonic stem cells (protein, UniProt Q8CCS6 1-302)
chain: MAAAAAAAAAAGAAGGRGSGPGRRRHLVPGAGGEAGEGDPGGAGDYGNGLESEELEPGELLPEPEPEEEPPRPRAPPGAPGPGPGSGAPGSQEEEEEPGLVEADPGDGAIEDPELEAIKARVREMEEEAEKLKELQNEVEKQMNMSPPPGNAGPVIMSLEEKMEADARSIYVGNVDYGATAEELEAHFHGCGSVNRVTILCDKFSGHPKGFAYIEFSDKESVRTSLALDESLFRGRQIKVIPKRTNRPGISTTDRGFPRSRYRARTTNYNSSRSRFYSGFNSRPRGRIYRGRARATSWYSPY
